Experimental data: the supplement of paper PMC4604168 (melanoma cell lines)
The list shows a part of the results. Single values are uncertain, as repeats are few or missing.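 The apoptosis fraction was the count of cleaved-PARP antibody-stained nuclei relative to all DNA-stained nuclei, imaged in 1,536-well plates. Screening doses were set so most cells survived, and baseline and induced cleaved-PARP levels vary greatly across cell lines.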

Key:
Experiment in all cases: cleaved PARP positive nuclei fraction relative to DMSO control; melanoma cells; higher = more apoptosis
Settings in all cases: library dose: low library concentration; 72 h
COLO792 = system: COLO792
COLO800 = system: COLO800
COLO829 = system: COLO829
G361 = system: G361
IPC-298 = system: IPC-298
IST-MEL1 = system: IST-MEL1
LB2518-MEL = system: LB2518-MEL
LOXIMVI = system: LOXIMVI
MEL-HO = system: MEL-HO
MZ2-MEL = system: MZ2-MEL
MeWo = system: MeWo
RPMI7951 = system: RPMI7951
RVH-421 = system: RVH-421
SkMel28 = system: SkMel28
SkMel2 = system: SkMel2
SkMel30 = system: SkMel30
SkMel5 = system: SkMel5
UACC257 = system: UACC257
UACC62 = system: UACC62

Row | Structure (SMILES) | cleaved PARP positive nuclei fraction (COLO792) [%] | cleaved PARP positive nuclei fraction (COLO800) [%] | cleaved PARP positive nuclei fraction (COLO829) [%] | cleaved PARP positive nuclei fraction (G361) [%] | cleaved PARP positive nuclei fraction (IPC-298) [%] | cleaved PARP positive nuclei fraction (IST-MEL1) [%] | cleaved PARP positive nuclei fraction (LB2518-MEL) [%] | cleaved PARP positive nuclei fraction (LOXIMVI) [%] | cleaved PARP positive nuclei fraction (MEL-HO) [%] | cleaved PARP positive nuclei fraction (MZ2-MEL) [%] | cleaved PARP positive nuclei fraction (MeWo) [%] | cleaved PARP positive nuclei fraction (RPMI7951) [%] | cleaved PARP positive nuclei fraction (RVH-421) [%] | cleaved PARP positive nuclei fraction (SkMel28) [%] | cleaved PARP positive nuclei fraction (SkMel2) [%] | cleaved PARP positive nuclei fraction (SkMel30) [%] | cleaved PARP positive nuclei fraction (SkMel5) [%] | cleaved PARP positive nuclei fraction (UACC257) [%] | cleaved PARP positive nuclei fraction (UACC62) [%]
1 | N#CC[C@H](C1CCCC1)n1cc(-c2ncnc3[nH]ccc23)cn1 [ruxolitinib] + CN(NC(=O)CC(=O)NN(C)C(=S)c1ccccc1)C(=S)c1ccccc1 [STA4783] (first compound 1 µM, partner dose 0.006 µM) | 250 | 121 | 120 | 69.9 | 44.1 | 123 | 51.1 | 42.3 | 143 | 127 | 55.5 | 45.8 | 95.7 | 54.6 | 24.4 | 68.3 | 67.4 | 133 | 165
2 | O=c1[nH]nc(Sc2ncc([N+](=O)[O-])s2)n1-c1ccc2c(c1)OCCO2 + COc1cc(Nc2ncc(F)c(Nc3ccc4c(n3)NC(=O)C(C)(C)O4)n2)cc(OC)c1OC [Tamatinib] (first compound 0.2 µM, partner dose 0.4 µM) | 147 | 122 | 160 | 130 | 114 | 21.8 | 49.7 | 89.8 | 70.8 | 105 | 129 | 80.9 | 59.5 | 135 | 87 | 83.2 | 258 | 51.2 | 77
3 | CCCCCCCCCCCCCCCCCCOP(=O)([O-])OC1CC[N+](C)(C)CC1 [Perifosine] + CC1(C)NC(=O)N(c2ccc([N+](=O)[O-])c(C(F)(F)F)c2)C1=O [nilutamide] (first compound 0.4 µM, partner dose 1 µM) | 54.3 | 79.8 | 163 | 120 | 60.1 | 132 | 51 | 55.4 | 71.9 | 115 | 116 | 305 | 92.6 | 108 | 92.6 | 163 | 167 | 54.6 | 407
4 | O=C(/C=C/c1cccnc1)NCCCCC1CCN(C(=O)c2ccccc2)CC1 + Cc1cc(N2CCOCC2)cc2[nH]c(-c3c(NC[C@@H](O)c4cccc(Cl)c4)cc[nH]c3=O)nc12 [BMS536924] (first compound 0.01 µM, partner dose 0.2 µM) | 364 | 271 | 460 | 2780 | 160 | 69.7 | 154 | 66.3 | 730 | 688 | 49.1 | 38.3 | 239 | 142 | 480 | 76.2 | 38.1 | 139 | 226
5 | Cc1cc(Nc2cc(N3CCN(C)CC3)nc(Sc3ccc(NC(=O)C4CC4)cc3)n2)n[nH]1 [Tozasertib] + Cn1cncc1[C@@](N)(c1ccc(Cl)cc1)c1ccc2c(c1)c(-c1cccc(Cl)c1)cc(=O)n2C [tipifarnib] (first compound 0.006 µM, partner dose 0.01 µM) | 60.5 | 43.8 | 79.3 | 71 | 43 | 49.4 | 105 | 89 | 130 | 62.1 | 105 | 218 | 29.3 | 40.5 | 131 | 50.3 | 107 | 66.4 | 72
6 | Cc1ccc(Nc2nccc(N(C)c3ccc4c(C)n(C)nc4c3)n2)cc1S(N)(=O)=O [Pazopanib] + Cn1cncc1[C@@](N)(c1ccc(Cl)cc1)c1ccc2c(c1)c(-c1cccc(Cl)c1)cc(=O)n2C [tipifarnib] (first compound 0.4 µM, partner dose 0.01 µM) | 49.3 | 238 | 70.6 | 76.4 | 50.4 | 36 | 76.9 | 150 | 448 | 28.7 | 69.4 | 127 | 45.9 | 35.8 | 59.2 | 152 | 91.2 | 197 | 272
7 | Cc1ccc(Nc2nccc(N(C)c3ccc4c(C)n(C)nc4c3)n2)cc1S(N)(=O)=O [Pazopanib] + NCC(=O)Nc1ccc(-n2nc(C(F)(F)F)cc2-c2ccc3c(ccc4ccccc43)c2)cc1 [OSU03012] (first compound 0.4 µM, partner dose 1 µM) | 18.8 | 121 | 138 | 103 | 118 | 110 | 42.7 | 122 | 199 | 90.8 | 171 | 52.3 | 84.2 | 59.4 | 162 | 138 | 75.9 | 127 | 83
8 | CCCCCCCCCCCCCCCCCCOP(=O)([O-])OC1CC[N+](C)(C)CC1 [Perifosine] + CC(C)(C)c1cnc(CSc2cnc(NC(=O)C3CCNCC3)s2)o1 [SNS-032] (first compound 0.4 µM, partner dose 0.01 µM) | 177 | 43.8 | 128 | 309 | 87.6 | 32.9 | 97 | 87.6 | 68.7 | 96.7 | 34.7 | 347 | 75.7 | 99.9 | 272 | 118 | 55.6 | 64.2 | 62.2
9 | CC[C@]1(O)C[C@H]2CN(CCc3c([nH]c4ccccc34)[C@@](C(=O)OC)(c3cc4c(cc3OC)N(C=O)[C@H]3[C@@](O)(C(=O)OC)[C@H](OC(C)=O)[C@]5(CC)C=CCN6CC[C@]43[C@@H]65)C2)C1 [vincristine] + O=C(Nc1cccc(Cl)c1)Nc1ncc(CCNc2ncnc3ccsc23)s1 [SNS314] (first compound 0.0001 µM, partner dose 0.0008 µM) | 69.2 | 146 | 96.5 | 71 | 46.7 | 87.3 | 119 | 82 | 73 | 277 | 141 | 106 | 108 | 99.8 | 63.3 | 99.1 | 358 | 275 | 241
10 | CCCCCCCCCCCCCCCCCCOP(=O)([O-])OC1CC[N+](C)(C)CC1 [Perifosine] + C=CCn1c(=O)c2cnc(Nc3ccc(N4CCN(C)CC4)cc3)nc2n1-c1cccc(C(C)(C)O)n1 [MK1775] (first compound 0.4 µM, partner dose 0.02 µM) | 79.2 | 55.3 | 62 | 84.3 | 97.3 | 150 | 111 | 294 | 39 | 97.8 | 42.9 | 241 | 130 | 121 | 55.4 | 87.3 | 379 | 66.7 | 104
11 | COc1cc([C@@H]2c3cc4c(cc3[C@@H](O[C@@H]3O[C@@H]5CO[C@@H](C)O[C@H]5[C@H](O)[C@H]3O)[C@H]3COC(=O)[C@H]23)OCO4)cc(OC)c1O [etoposide] + OCCn1cc(-c2cnc3nnn(Cc4ccc5ncccc5c4)c3n2)cn1 [PF04217903] (first compound 0.02 µM, partner dose 1 µM) | 119 | 110 | 72.5 | 60 | 49.2 | 140 | 50.2 | 79.8 | 125 | 145 | 72 | 164 | 45 | 97.6 | 80 | 66.9 | 69.9 | 47.4 | 121
12 | CC[C@]1(O)C[C@H]2CN(CCc3c([nH]c4ccccc34)[C@@](C(=O)OC)(c3cc4c(cc3OC)N(C=O)[C@H]3[C@@](O)(C(=O)OC)[C@H](OC(C)=O)[C@]5(CC)C=CCN6CC[C@]43[C@@H]65)C2)C1 [vincristine] + Cc1ccc(NC(=O)c2cccc(N(C)C)c2)cc1NC(=O)c1ccc(O)cc1 [ZM336372] (first compound 0.0001 µM, partner dose 2 µM) | 60.8 | 251 | 189 | 110 | 108 | 294 | 229 | 149 | 79.3 | 117 | 96.7 | 95 | 101 | 430 | 89.2 | 114 | 112 | 1320 | 161
13 | Cc1cc(Nc2cc(N3CCN(C)CC3)nc(Sc3ccc(NC(=O)C4CC4)cc3)n2)n[nH]1 [Tozasertib] + CN(NC(=O)CC(=O)NN(C)C(=S)c1ccccc1)C(=S)c1ccccc1 [STA4783] (first compound 0.006 µM, partner dose 0.006 µM) | 129 | 75.8 | 67.6 | 126 | 21.1 | 86.7 | 185 | 74.8 | 147 | 118 | 90.8 | 106 | 196 | 203 | 16.8 | 375 | 116 | 104 | 132
14 | COc1cc([C@@H]2c3cc4c(cc3[C@@H](O[C@@H]3O[C@@H]5CO[C@@H](C)O[C@H]5[C@H](O)[C@H]3O)[C@H]3COC(=O)[C@H]23)OCO4)cc(OC)c1O [etoposide] + NC(=O)Nc1cc(-c2cccc(F)c2)sc1C(=O)N[C@H]1CCCNC1 [AZD7762] (first compound 0.02 µM, partner dose 0.02 µM) | 44.6 | 100 | 92.8 | 80 | 88.3 | 61.6 | 41.6 | 54.8 | 268 | 91.6 | 115 | 175 | 36.8 | 63.5 | 121 | 68 | 124 | 87.2 | 120
15 | O=C(/C=C/c1cccnc1)NCCCCC1CCN(C(=O)c2ccccc2)CC1 + COc1cc2c(Oc3ccc4[nH]c(C)cc4c3F)ncnc2cc1OCCCN1CCCC1 [cediranib] (first compound 0.01 µM, partner dose 0.4 µM) | 236 | 283 | 401 | 2620 | 212 | 191 | 282 | 68.9 | 361 | 494 | 143 | 213 | 220 | 64.1 | 466 | 64.5 | 35.2 | 66.3 | 33
16 | CCCCCCCCCCCCCCCCCCOP(=O)([O-])OC1CC[N+](C)(C)CC1 [Perifosine] + CO[C@@H]1[C@H](N(C)C(=O)c2ccccc2)C[C@H]2O[C@]1(C)n1c3ccccc3c3c4c(c5c6ccccc6n2c5c31)C(=O)NC4 [Midostaurin] (first compound 0.4 µM, partner dose 0.08 µM) | 61.3 | 79.5 | 111 | 98.5 | 47.5 | 100 | 108 | 55.7 | 134 | 47.6 | 113 | 130 | 49.6 | 353 | 190 | 74.3 | 82.4 | 36.1 | 525
